Read-outs that look alike come from different tables or passages of the source. Results are given in words; binding and its absence hold for the method and conditions named. In cells and extracts the contact can be indirect. Some entries that bind do so weakly or less than the wild type. Sequences can lack the tags named with a protein.
T1: Ada2b isoform B, C-terminally HA2-Flag2 tagged (Ada2b-PBH2F2) (Drosophila) (UniProt Q8I8V0)
T1 sequence: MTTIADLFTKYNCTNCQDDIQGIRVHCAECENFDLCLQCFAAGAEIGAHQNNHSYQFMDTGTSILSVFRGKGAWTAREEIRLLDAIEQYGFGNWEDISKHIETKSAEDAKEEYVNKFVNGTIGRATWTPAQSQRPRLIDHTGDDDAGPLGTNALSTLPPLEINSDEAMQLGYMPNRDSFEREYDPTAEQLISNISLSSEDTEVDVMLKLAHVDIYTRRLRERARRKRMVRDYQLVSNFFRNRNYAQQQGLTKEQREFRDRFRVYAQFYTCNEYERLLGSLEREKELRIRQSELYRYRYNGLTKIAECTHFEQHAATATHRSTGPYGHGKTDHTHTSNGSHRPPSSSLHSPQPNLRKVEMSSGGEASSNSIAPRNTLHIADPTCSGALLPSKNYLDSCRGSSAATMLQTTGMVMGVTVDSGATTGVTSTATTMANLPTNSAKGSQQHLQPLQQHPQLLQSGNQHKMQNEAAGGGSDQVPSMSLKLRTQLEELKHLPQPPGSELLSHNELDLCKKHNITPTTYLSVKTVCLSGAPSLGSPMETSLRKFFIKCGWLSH

Protein sequences, listed by entry. Tags and fused reporters are not part of them.
UniProt O76216: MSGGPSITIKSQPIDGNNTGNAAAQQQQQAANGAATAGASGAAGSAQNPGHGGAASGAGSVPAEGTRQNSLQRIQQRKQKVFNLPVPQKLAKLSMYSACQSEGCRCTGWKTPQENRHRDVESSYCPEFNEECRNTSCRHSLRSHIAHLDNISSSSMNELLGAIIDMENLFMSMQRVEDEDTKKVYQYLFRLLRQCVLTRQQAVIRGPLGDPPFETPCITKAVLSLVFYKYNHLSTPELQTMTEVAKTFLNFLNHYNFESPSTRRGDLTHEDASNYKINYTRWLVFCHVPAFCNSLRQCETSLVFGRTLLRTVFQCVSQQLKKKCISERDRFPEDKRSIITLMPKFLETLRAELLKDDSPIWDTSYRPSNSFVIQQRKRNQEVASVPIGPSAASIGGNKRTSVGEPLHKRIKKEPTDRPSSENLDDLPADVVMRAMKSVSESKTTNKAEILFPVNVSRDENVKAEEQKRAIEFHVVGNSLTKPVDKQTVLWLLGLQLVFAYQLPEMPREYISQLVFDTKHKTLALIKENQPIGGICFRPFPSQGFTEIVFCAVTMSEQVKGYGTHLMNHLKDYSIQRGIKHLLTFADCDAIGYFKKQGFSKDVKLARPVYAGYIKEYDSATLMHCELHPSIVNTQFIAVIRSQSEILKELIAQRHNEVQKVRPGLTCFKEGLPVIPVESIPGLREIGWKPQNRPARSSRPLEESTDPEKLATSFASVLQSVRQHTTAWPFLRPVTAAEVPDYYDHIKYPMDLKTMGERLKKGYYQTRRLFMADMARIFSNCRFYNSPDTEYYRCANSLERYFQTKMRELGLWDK

B1: Spt3 (protein, UniProt Q9VGE2 1-384)
chain: MNYNAKRVMRQNSVCVGSNDMAASPIMIGPAPPSAPSTPQLQTTEDIKPLLVQRQVILLQSGSIPTNPSPQQINLAGHNVAGGASGSNVANVLIPDDAPVSLLTEIADIMRSFGDSDQPRTGSVKLVEQILQQQLRGIFNEASLVAMRRKQNPCPSQADFEFLMRNHPVKIARMRKHLKDMRILKRFLSIRTGRPQDFMDDLEQQEEDEELAIDVYELHDEDRMRRLFRADRISQILTGQQYLEFNEARKTSFYCRHGEKIKNKFRRFLDLPADLRIPTPTMNILAYLAHETIAAIVDYSILTRLNSDNRATEPYSRVTSAGGSPAMMHVCPEVTQGRGMEVVKPISVPEIHEAMRRFRQMSSRKIGRYRNSCDIDFRRSFLAI

Tests used:
[1] = target: T1, Ada2b isoform B, C-terminally HA2-Flag2 tagged (Ada2b-PBH2F2) (Drosophila); assay: co-IP + SEC; Flag affinity purification (M2 anti-Flag beads, high salt washes, 3x Flag peptide elution) of Ada2b-PBH2F2 from S2 nuclear extract, eluate separated on Superose 6, fractions probed by Western blot
[2] = target: T1, Ada2b isoform B, C-terminally HA2-Flag2 tagged (Ada2b-PBH2F2) (Drosophila); assay: as above; remark: listed apart in the source

| Molecule | binding [1] | binding [2] |
| --- | --- | --- |
| Gcn5 (from UniProt O76216 1-813) (enzyme) | binds |  |
| B1 |  | binds |
